Results are given in words; binding and its absence hold for the method and conditions named.
Target: T1, recombinant full-length AIM2 (AIM2^FL), donor-labeled (UniProt O14862)
T1 sequence (chain, donor-labeled (fluorophore for FRET)): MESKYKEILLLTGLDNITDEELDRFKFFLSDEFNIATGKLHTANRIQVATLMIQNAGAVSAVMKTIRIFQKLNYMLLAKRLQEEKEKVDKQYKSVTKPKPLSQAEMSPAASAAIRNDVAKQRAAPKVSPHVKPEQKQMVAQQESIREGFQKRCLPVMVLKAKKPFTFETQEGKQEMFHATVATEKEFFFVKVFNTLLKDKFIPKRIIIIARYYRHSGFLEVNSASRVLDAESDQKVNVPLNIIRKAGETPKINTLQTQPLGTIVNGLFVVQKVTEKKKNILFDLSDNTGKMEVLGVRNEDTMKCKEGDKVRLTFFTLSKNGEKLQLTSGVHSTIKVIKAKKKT
Experiment: FRET or BRET; donor-labeled recombinant AIM2^FL and acceptor-labeled recombinant IFI16^FL; change in FRET ratio in the presence and absence of 600-bp dsDNA (10 µg/ml); both purified

Chains of the proteins cited; added tags and fusions are not shown.
UniProt Q16666: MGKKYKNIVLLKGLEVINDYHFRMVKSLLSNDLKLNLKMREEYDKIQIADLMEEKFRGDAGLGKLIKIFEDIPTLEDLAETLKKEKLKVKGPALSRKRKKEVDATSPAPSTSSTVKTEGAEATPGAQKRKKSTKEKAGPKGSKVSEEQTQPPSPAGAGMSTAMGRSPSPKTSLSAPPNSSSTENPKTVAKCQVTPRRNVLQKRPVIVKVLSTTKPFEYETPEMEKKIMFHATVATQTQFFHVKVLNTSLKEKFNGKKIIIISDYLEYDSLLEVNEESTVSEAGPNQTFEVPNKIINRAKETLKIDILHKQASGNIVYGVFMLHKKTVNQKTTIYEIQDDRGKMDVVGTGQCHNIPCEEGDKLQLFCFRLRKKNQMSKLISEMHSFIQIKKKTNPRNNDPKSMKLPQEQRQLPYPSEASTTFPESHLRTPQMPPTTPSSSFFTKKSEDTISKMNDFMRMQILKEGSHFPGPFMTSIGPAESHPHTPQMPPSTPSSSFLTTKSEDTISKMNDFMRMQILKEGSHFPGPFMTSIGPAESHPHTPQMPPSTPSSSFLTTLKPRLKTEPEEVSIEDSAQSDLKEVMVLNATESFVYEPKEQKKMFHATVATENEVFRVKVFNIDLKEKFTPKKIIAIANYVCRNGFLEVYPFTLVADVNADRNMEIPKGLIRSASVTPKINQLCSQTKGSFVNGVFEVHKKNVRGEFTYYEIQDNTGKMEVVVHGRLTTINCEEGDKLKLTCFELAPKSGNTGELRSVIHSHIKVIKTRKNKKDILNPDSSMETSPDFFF

## recombinant full-length IFI16 (IFI16^FL), acceptor-labeled (from UniProt Q16666 1-785)
  binding: no binding

Reference: paper PMC12705702, “Structural insights into the atypical filament assembly of pyrin domain-containing IFI16” (The EMBO Journal, 2025)
